The other results are listed elsewhere or left out. Most values lie at the level of the controls, where differences are scatter.
System: ppGalNAc-T3 sensor
Test: T3 sensor activation Q score (MG/GFP ratio z-score vs DMSO controls) (SD units); higher = more sensor activation (inhibition of ppGalNAc-T3 glycosylation)
Conditions: HEK293 sensor cells; 10 µM; 6 h
Procedure: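 Cells were treated with compound at 10 uM for 6 h, then MG/GFP ratio was read by flow cytometry (10,000 cells per well, duplicate wells). Q = (R - R_neg)/SD_neg relative to DMSO vehicle controls; the signal rises when the glycosyltransferase is inhibited.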

SMILES	T3 sensor activation Q score
COc1ccc(CC(=O)Nc2cccc(F)c2)cc1	-0.29
NC(=O)C(=O)Nc1cccc(Cl)c1Cl	1.09
O=C(Nc1ccc(F)cc1)Nc1cccc(Br)c1	-0.255
Cc1cccc(N2C(=O)CC(N3CCOCC3)C2=O)c1 (stereo not given)	0.85
O=C(C(c1ccccc1)c1ccccc1)N1CCOCC1	-0.78
CCc1c(C)nc(N)nc1N1CCOCC1	-0.13
O=C(Cn1ccnc1)c1ccc(Cl)cc1Cl	-1.13
O=C(Nc1ccc(F)cc1)Nc1ccc(Cl)cc1	-0.84
Cc1cccc(C(=O)NCc2ccncc2)c1	0.655
CC(=O)c1cccc(NC(=O)c2ccccc2-c2ccccc2C(=O)O)c1	0.09
Clc1ccccc1CN1CCOCC1	0.25
O=c1c(CN2CCN(c3ccccc3)CC2)coc2ccc(Cl)cc12	0.715
CCCNc1nc(OC)nc(OC)n1	-0.625
COc1ccc(CN2CCN(Cc3ccc4c(c3)OCO4)CC2)cc1	-0.23
Cc1ccc(SCC(=O)N2CCN(Cc3ccccc3)CC2)cc1	-0.765
O=C(O)CNc1ccccc1C(=O)O	-1.5
Cc1ccc2[nH]c(C)c(CCC(=O)NC3CCCCC3)c2c1	0.6
CC(NC(=O)C1CCCCC1C(=O)O)c1ccccc1 (stereo not given)	0.265
O=C(Nc1ccccc1)Oc1ccccc1Br	-0.315
CC(=O)C1=C(O)C(=O)N(C)C1c1ccccc1 (stereo not given)	0.76

In the list so far, these have fluorine.
SMILES	T3 sensor activation Q score
COc1ccc(CC(=O)Nc2cccc(F)c2)cc1	-0.29
O=C(Nc1ccc(F)cc1)Nc1cccc(Br)c1	-0.255
O=C(Nc1ccc(F)cc1)Nc1ccc(Cl)cc1	-0.84

Further results follow:

SMILES	T3 sensor activation Q score
COc1cccc(CN2CCc3ccccc3C2)c1	-0.465
COc1ccccc1NC(=O)c1cccc(C)c1	-0.79
Cc1ccccc1OCC(=O)Nc1ccc(F)cc1	1.4
Cc1ccc(S(=O)(=O)Nc2cccc3cccnc23)cc1	-0.985
COc1ccc(N2C(=O)CC(N3CCOCC3)C2=O)cc1 (stereo not given)	0.4
CC(=O)C1=C(O)C(=O)N(c2ccccn2)C1c1ccccc1 (stereo not given)	0.425
O=C(Nc1ccccc1)Nc1cccc(Cl)c1	0.91
COc1ccc2c(Cl)c(C(=O)N3CCOCC3)sc2c1	0.53
COc1ccccc1NC(=O)CC1Sc2ccccc2NC1=O (stereo not given)	-1.25
CCN1CCN(CC(O)COCC2COc3ccccc3O2)CC1 (stereo not given)	-0.695
CCCNS(=O)(=O)c1ccc([N+](=O)[O-])cc1	0.155
CN1CCN(S(=O)(=O)c2cc(Cl)c(Cl)cc2Cl)CC1	-0.435
NC12CC3CC(C1)CC(C(=O)O)(C3)C2	0.865
CCCSc1nnc2c(n1)[nH]c1ccccc12	-0.515
COc1ccc(CN2CCN(c3ccc(Cl)cc3)CC2)c(OC)c1OC	0.375
CC(=O)c1ccc(N2CCN(CC(c3ccccc3)c3ccccc3)CC2)cc1	-0.005
CCN(CC)S(=O)(=O)c1ccc(Br)c(C(=O)O)c1	0.55
O=C(CC(Nc1ccccc1)c1ccccc1)c1ccccc1 (stereo not given)	-0.11
CN(C)CCN(C)Cc1ccc(Cl)cc1	-0.19
O=C(Nc1nn[nH]n1)C1c2ccccc2Oc2ccccc21	-0.18
